{"sequences": {"note": "Sequences of proteins named here, by UniProt entry; tags and fusion partners are left off.", "UniProt P83510": "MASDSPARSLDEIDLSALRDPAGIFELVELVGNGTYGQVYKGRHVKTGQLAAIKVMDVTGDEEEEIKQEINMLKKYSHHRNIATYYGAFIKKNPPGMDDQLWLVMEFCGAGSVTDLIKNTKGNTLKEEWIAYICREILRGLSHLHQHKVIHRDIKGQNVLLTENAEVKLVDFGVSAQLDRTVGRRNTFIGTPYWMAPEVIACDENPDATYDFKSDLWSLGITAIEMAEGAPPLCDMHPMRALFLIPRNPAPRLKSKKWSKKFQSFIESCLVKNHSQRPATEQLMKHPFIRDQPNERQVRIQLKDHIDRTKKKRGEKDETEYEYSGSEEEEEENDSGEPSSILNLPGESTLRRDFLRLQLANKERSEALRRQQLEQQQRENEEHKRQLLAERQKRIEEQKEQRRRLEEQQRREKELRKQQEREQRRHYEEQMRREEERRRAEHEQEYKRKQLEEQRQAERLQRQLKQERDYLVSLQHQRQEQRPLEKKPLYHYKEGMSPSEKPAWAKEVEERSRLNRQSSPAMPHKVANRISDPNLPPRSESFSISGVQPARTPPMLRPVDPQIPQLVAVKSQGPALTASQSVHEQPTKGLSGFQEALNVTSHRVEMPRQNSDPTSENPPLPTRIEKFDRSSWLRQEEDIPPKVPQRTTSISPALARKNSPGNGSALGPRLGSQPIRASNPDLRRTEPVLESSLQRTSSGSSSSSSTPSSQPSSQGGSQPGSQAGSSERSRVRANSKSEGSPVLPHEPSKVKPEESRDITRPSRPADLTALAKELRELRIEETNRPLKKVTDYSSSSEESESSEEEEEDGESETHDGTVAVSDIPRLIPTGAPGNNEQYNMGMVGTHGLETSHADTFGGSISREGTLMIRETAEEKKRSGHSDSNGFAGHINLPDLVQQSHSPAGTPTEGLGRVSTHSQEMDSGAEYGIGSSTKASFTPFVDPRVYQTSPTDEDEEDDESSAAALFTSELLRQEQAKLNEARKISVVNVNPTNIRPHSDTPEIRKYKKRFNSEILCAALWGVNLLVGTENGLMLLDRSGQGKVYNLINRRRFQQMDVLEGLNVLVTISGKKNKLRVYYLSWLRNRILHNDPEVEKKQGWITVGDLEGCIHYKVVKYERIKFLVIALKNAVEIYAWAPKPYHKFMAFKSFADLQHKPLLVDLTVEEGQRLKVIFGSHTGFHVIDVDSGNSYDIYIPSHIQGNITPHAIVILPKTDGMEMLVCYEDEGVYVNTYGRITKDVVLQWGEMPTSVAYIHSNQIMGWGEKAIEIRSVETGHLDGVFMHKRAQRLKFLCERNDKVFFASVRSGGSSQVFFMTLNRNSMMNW"}, "source": "paper doi:10.1101/2021.04.04.438383", "about": "(bioRxiv, 2021)", "molecules": {"B1": {"name": "drebrin, endogenous (protein, UniProt Q9QXS6 1-706)", "chain": "MAGVSFSGHRLELLAAYEEVIREESAADWALYTYEDGSDDLKLAASGEGGLQELSGHFENQKVMYGFCSVKDSQAALPKYVLINWVGEDVPDARKCACASHVAKVAEFFQGVDVIVNASSVEDIDAGAIGQRLSNGLARLSSPVLHRLRLREDENAEPVGTTYQKTDAAVEMKRINREQFWEQAKKEEELRKEEERKKALDARLRFEQERMEQERQEQEERERRYREREQQIEEHRRKQQSLEAEEAKRRLKEQSIFGDQRDEEEESQMKKSESEVEEAAAIIAQRPDNPREFFRQQERVASASGGSCDAPAPAPFNHRPGRPYCPFIKASDSGPSSSSSSSSSPPRTPFPYITCHRTPNLSSSLPCSHLDSHRRMAPTPIPTRSPSDSSTASTPIAEQIERALDEVTSSQPPPPPPPPPPTQEAQETTPSLDEELSKEAKVTAAPEVWAGCAAEPPQAQEPPLLQSSPLEDSMCTESPEQAALAAPAEPAASVTSVADVHAADTIETTTATTDTTIANNVTPAAASLIDLWPGNGEEASTLQAEPRVPTPPSGAEASLAEVPLLNEAAQEPLPPVGEGCANLLNFDELPEPPATFCDPEEEVGETLAASQVLTMPSALEEVDQVLEQELEPEPHLLTNGETTQKEGTQASEGYFSQSQEEEFAQSEEPCAKVPPPVFYNKPPEIDITCWDADPVPEEEEGFEGGD"}}, "assay_in_all_cases": "co-IP", "key": {"[1]": {"molecular_target": "TNIK (Traf2 and Nck interacting kinase), endogenous (mouse (endogenous in Neuro2a)) (UniProt P83510)"}, "[2]": {"molecular_target": "T1, wild-type (WT) Arc-Myc-FLAG (mouse Activity-regulated cytoskeleton-associated protein) (mouse) (UniProt Q9WV31)", "T1 sequence": "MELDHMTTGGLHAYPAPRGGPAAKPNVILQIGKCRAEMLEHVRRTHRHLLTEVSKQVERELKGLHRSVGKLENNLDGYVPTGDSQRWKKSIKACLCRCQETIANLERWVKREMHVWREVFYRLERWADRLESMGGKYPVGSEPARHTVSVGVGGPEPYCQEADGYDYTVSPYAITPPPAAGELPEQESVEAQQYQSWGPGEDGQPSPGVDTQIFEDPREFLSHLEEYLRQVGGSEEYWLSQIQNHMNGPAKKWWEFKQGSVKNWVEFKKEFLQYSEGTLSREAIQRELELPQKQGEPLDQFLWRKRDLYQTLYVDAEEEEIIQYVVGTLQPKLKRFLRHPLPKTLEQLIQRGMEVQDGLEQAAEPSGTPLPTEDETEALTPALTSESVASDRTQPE"}, "[3]": {"molecular_target": "T1, wild-type (WT) Arc-Myc-FLAG (mouse Activity-regulated cytoskeleton-associated protein) (mouse)", "remark": "listed apart in the source"}}, "note": "Like-named read-outs stand apart in the source and are kept apart here. Results are given in words; binding and its absence hold for the method and conditions named. Binding seen in cells or lysates may run through a third protein. Some entries that bind do so weakly or less than the wild type. For part of these data: Sequences can lack the tags named with a protein.", "data": [{"molecule": "wild-type (WT) Arc-Myc-FLAG (mouse Activity-regulated cytoskeleton-associated protein) (from UniProt Q9WV31 1-396)", "values": [{"measurement": "binding", "setting": "[1]", "result": "binds"}]}, {"molecule": "TNIK (Traf2 and Nck interacting kinase), endogenous (from UniProt P83510 1-1323) (enzyme)", "values": [{"measurement": "binding", "setting": "[2]", "result": "binds"}]}, {"molecule": "B1", "values": [{"measurement": "binding", "setting": "[3]", "result": "binds"}]}]}
